Measured values published in paper PMC6294250.
These are yes or no findings as the source states them, for the method shown. Binding seen in cells or lysates may run through a third protein. These calls come from enrichment with a bait or labelling near it, and not all partners need be listed.

Amino acid sequences for entries named in this document (tags omitted). A change or cut given only in a name is not applied to a line headed by its entry.
UniProt Q0WNJ6: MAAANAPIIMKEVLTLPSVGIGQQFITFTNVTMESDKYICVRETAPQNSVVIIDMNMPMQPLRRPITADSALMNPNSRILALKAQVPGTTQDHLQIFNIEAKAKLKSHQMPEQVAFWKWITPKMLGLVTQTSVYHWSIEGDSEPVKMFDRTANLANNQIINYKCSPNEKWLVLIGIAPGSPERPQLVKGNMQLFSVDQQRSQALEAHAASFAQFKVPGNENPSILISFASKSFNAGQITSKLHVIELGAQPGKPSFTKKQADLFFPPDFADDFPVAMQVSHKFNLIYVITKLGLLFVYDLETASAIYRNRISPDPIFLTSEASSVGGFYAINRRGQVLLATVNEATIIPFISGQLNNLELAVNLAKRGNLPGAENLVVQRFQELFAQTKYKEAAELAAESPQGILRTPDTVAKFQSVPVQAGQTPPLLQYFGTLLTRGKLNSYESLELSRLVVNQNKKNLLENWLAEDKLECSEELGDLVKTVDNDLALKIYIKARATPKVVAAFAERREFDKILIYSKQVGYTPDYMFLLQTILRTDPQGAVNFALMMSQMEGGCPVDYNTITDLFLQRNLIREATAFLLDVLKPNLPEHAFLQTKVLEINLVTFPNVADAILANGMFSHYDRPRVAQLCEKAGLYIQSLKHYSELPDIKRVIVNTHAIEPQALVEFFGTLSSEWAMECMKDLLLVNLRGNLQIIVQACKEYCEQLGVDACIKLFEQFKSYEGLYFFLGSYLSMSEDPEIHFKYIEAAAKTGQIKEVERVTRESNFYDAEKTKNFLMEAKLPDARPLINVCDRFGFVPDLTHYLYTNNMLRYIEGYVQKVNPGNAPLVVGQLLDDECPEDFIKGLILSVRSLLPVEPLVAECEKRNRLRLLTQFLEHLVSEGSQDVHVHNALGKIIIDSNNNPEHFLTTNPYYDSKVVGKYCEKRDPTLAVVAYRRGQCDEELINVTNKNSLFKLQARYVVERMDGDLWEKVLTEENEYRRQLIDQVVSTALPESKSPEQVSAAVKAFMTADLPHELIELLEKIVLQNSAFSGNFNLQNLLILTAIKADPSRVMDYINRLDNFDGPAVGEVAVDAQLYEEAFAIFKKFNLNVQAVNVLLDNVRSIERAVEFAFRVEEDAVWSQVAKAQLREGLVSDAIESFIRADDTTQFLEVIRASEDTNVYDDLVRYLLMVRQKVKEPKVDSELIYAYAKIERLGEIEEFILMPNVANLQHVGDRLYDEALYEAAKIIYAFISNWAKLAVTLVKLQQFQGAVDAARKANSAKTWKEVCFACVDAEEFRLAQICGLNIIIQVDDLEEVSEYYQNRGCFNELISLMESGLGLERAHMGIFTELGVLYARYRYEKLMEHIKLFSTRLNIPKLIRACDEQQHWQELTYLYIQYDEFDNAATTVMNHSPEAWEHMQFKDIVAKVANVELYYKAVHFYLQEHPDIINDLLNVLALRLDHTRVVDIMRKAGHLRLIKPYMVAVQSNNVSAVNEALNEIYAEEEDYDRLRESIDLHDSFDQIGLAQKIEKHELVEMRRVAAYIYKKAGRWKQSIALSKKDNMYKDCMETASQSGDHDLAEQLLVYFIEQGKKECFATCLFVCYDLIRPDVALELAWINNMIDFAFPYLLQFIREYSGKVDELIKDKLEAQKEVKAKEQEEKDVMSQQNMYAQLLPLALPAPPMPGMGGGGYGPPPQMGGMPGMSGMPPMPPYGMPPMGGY
UniProt O23654: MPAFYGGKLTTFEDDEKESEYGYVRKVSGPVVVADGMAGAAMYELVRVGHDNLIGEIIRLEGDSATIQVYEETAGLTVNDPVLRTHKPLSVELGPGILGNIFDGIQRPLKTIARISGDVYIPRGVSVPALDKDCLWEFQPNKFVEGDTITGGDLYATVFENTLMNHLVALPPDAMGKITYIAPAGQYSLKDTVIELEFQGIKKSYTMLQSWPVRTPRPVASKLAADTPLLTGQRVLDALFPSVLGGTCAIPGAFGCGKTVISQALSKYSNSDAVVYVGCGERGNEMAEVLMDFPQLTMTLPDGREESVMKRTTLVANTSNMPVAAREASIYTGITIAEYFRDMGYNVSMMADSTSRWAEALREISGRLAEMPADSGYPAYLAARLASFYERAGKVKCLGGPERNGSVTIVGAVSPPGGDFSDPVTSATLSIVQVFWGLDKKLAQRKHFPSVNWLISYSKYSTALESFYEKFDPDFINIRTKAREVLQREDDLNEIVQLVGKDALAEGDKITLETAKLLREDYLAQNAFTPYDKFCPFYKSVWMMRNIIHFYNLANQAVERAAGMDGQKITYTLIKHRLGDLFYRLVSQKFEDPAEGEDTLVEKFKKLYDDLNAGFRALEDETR

Target: TGNap1-YFP (Arabidopsis thaliana) (UniProt F4KCQ2)
Experiment: affinity purification with mass spectrometry; extract of 2-week-old Arabidopsis seedlings overexpressing TGNap1-YFP; anti-GFP serum on Dynabeads Protein A; LC/MS/MS; untransformed Col-0 as control

Substance	binding
clathrin heavy chain (CHC) (from UniProt Q0WNJ6)	binds
vacuolar ATP synthase subunit A (from UniProt O23654 1-623)	binds
